The list shows only some results of the screen, not a fair sample: it gathers tests that were run many times, whatever their T/C, doses with no T/C, and many T/C values between a quarter and a half above the control. Other doses and runs of a compound stand elsewhere. T/C is the treated group as % of the vehicle group. Some doses have a count of surviving animals in place of a T/C: the source holds a T/C of zero for them, seemingly a mark for toxic or unscored doses. Some survivor counts are full or nearly so, which does not show that the dose was tolerated: survival well below the control is almost never listed, so the zero probably covers shortened survival too. Counts of survivors are from the toxicity check (mostly the fifth day) where no day follows; animals may have died later. Schedule codes are those of the source, read here as Q, the interval in days (D) or hours (H), X, the number of doses. Some schedules carry Z or #; the key to these is not given. Some entries were tested several times; the results are listed from low to high. Some molecules as drawn cover several salts, stereoisomers or complexes of the source; a dose is that of the sample tested. For survival time, this PubChem deposit counts one and a half times the control or more as active, and values a quarter to a half above the control carry no call in these data; other NCI protocols may use other cut-offs. Some T/C values carry the count of animals alive at the toxicity check (mostly the fifth day); without a count, all were alive then.
Test system: L1210 leukemia ip in BDF1 mice, survival T/C
Test: NCI In Vivo Anticancer Drug Screen. Data for tumor model L1210 Leukemia (intraperitoneal) in B6D2F1 (BDF1) mice
Conditions: T/C endpoint: mean survival time, higher T/C = longer survival
[1] = dose: 50.0 mg/kg/injection, schedule: Q01DX009 (ip), vehicle: saline
[2] = dose: 300.0 mg/kg/injection, schedule: Q01DX001 (ip), vehicle: saline
[3] = dose: 400.0 mg/kg/injection, schedule: Q01DX001 (ip), vehicle: saline
[4] = dose: 200.0 mg/kg/injection, schedule: Q01DX009 (ip), vehicle: saline with Tween-80
[5] = dose: 400.0 mg/kg/injection, schedule: Q04DX003 (ip), vehicle: saline with Tween-80
[6] = dose: 400.0 mg/kg/injection, schedule: Q01DX009 (ip), vehicle: Klucel (hydroxypropylcellulose) (HPC)

What does the source list for `COc1cc(NS(C)(=O)=O)ccc1Nc1c2ccc([N+](=O)[O-])cc2nc2c(C)cccc12`?
T/C (dose: 0.25 mg/kg/injection, schedule: Q01DX009 (ip), vehicle: saline): 137 % of control; T/C (dose: 0.5 mg/kg/injection, schedule: Q01DX009 (ip), vehicle: saline): 143 % of control; T/C (dose: 2.5 mg/kg/injection, schedule: Q01DX009 (ip), vehicle: saline): 138 % of control; T/C (dose: 2.5 mg/kg/injection, schedule: Q01DX009 (sc), vehicle: saline): 139 % of control [9 of 10 alive]; T/C (dose: 2.8 mg/kg/injection, schedule: Q04DX003 (ip), vehicle: saline): 139 % of control; T/C (dose: 3.75 mg/kg/injection, schedule: Q04DX003 (ip), vehicle: saline): 144 % of control; T/C (dose: 5.0 mg/kg/injection, schedule: Q01DX009 (ip), vehicle: saline): 127 % of control; T/C (dose: 6.5 mg/kg/injection, schedule: Q01DX001 (ip), vehicle: other): 129 % of control; T/C (dose: 10.0 mg/kg/injection, schedule: Q01DX001 (ip), vehicle: other): 125 % of control; survivor count (dose: 10.0 mg/kg/injection, schedule: Q01DX009 (ip), vehicle: saline): 6 of 6; T/C (dose: 10.0 mg/kg/injection, schedule: Q01DX009 (sc), vehicle: saline): 147 % of control; survivor count (dose: 20.0 mg/kg/injection, schedule: Q01DX009 (sc), vehicle: saline): 10 of 10; T/C (dose: 22.0 mg/kg/injection, schedule: Q01DX001 (ip), vehicle: other): 136 % of control; survivor count (dose: 33.0 mg/kg/injection, schedule: Q01DX009 (ip), vehicle: saline): 4 of 6; survivor count (dose: 37.0 mg/kg/injection, schedule: Q04DX003 (ip), vehicle: saline): 6 of 6; survivor count [1]: 6 of 6; survivor count (dose: 75.0 mg/kg/injection, schedule: Q01DX009 (ip), vehicle: saline): 4 of 6; survivor count (dose: 75.0 mg/kg/injection, schedule: Q04DX003 (ip), vehicle: saline): 5 of 6; survivor count (dose: 113.0 mg/kg/injection, schedule: Q01DX009 (ip), vehicle: saline): 2 of 6; survivor count [2]: 1 of 6

`Nc1ccc([As](=O)(O)O)cc1` was tested. Which survivor count (dose: 200.0 mg/kg/injection, schedule: Q01DX009 (ip), vehicle: saline) did it give?
The survivor count was 3 of 3.

What about the survivor count (dose: 400.0 mg/kg/injection, schedule: Q01DX009 (ip), vehicle: saline) of the same compound?
Its survivor count is 1 of 3.

For `O=[N+]([O-])c1ccc(Oc2ccc(S(=O)(=O)O)cc2)cc1`, which survivor count (dose: 100.0 mg/kg/injection, schedule: Q04DX002 (ip), vehicle: saline with Tween-80) is on record?
The survivor count was 3 of 3.

What about the survivor count (dose: 200.0 mg/kg/injection, schedule: Q04DX002 (ip), vehicle: saline with Tween-80) of the same compound?
The survivor count was 3 of 3.

What about the survivor count (dose: 400.0 mg/kg/injection, schedule: Q04DX002 (ip), vehicle: saline with Tween-80) of the same compound?
The survivor count was 3 of 3.

Which survivor count (dose: 50.0 mg/kg/injection, schedule: Q01DX009 (ip), vehicle: saline with Tween-80) does the source give for `O=[N+]([O-])c1cc([N+](=O)[O-])c(Cl)s1` here?
The survivor count was 5 of 6.

Which results are given for `CN=C(N)N(C)NCc1ccccc1`?
survivor count (dose: 200.0 mg/kg/injection, schedule: Q01DX001 (ip), vehicle: saline): 1 of 6; survivor count [3]: 0 of 6

For `NC(N)=NCC(CCN1CCCCC1)c1cccc2ccccc12` (stereo not given), which survivor count (dose: 25.0 mg/kg/injection, schedule: Q04DX002 (ip), vehicle: saline) is on record?
The survivor count was 3 of 3.

What about the survivor count (dose: 50.0 mg/kg/injection, schedule: Q04DX002 (ip), vehicle: saline) of the same compound?
The survivor count was 2 of 3.

And the survivor count (dose: 100.0 mg/kg/injection, schedule: Q04DX002 (ip), vehicle: saline)?
Its survivor count is 0 of 3.

For `NNC(=O)CNc1ccc(Cl)cc1`, which survivor count (dose: 200.0 mg/kg/injection, schedule: Q04DX002 (ip), vehicle: Klucel (hydroxypropylcellulose) (HPC)) is on record?
Its survivor count is 0 of 3 and 1 of 3.

And the survivor count (dose: 400.0 mg/kg/injection, schedule: Q04DX002 (ip), vehicle: Klucel (hydroxypropylcellulose) (HPC))?
Its survivor count is 0 of 3.

What does the source list for `C/C(=N\N=C(N)N)c1ccc(NC(N)=S)cc1`?
survivor count (dose: 80.0 mg/kg/injection, schedule: Q01DX005 (ip), vehicle: saline): 0 of 6; survivor count (dose: 160.0 mg/kg/injection, schedule: Q01DX005 (ip), vehicle: saline): 0 of 6; survivor count (dose: 320.0 mg/kg/injection, schedule: Q01DX005 (ip), vehicle: saline): 0 of 6

Which T/C [4] does the source give for `O=C1Cc2ccccc2O1` here?
Its T/C is 135 % of control.

With `CN(C)C1(C(=O)O)c2ccccc2-c2ccccc21` as the compound, how does the survivor count [3] read?
Its survivor count is 2 of 4.

Which results are given for `CC(=O)CC(=O)CC(O)(C(F)(F)F)C(F)(F)F`?
survivor count [4]: 2 of 6; survivor count (dose: 400.0 mg/kg/injection, schedule: Q01DX009 (ip), vehicle: saline with Tween-80): 0 of 6

`CCC(Cl)COP(=O)(OCC(Cl)CC)C(CC)OP(=S)(OCC(Cl)CC)OCC(Cl)CC` (stereo not given) was tested. Which survivor count (dose: 350.0 mg/kg/injection, schedule: Q01DX009 (ip), vehicle: Klucel (hydroxypropylcellulose) (HPC)) did it give?
The survivor count was 5 of 6.

Which survivor count [4] does the source give for `Cc1ccc2nc3c(cc(F)c4ccccc43)c(C)c2c1` here?
Its survivor count is 1 of 3.

With `COc1c2c(c(OC)c3ccccc13)C(=O)C1=C(CC=CC1)C2=O` as the compound, how does the survivor count (dose: 400.0 mg/kg/injection, schedule: Q01DX005 (ip), vehicle: water) read?
The survivor count was 4 of 4.

`CC1=N/C(=C/c2ccccc2Cl)C(=O)O1` was tested. Which survivor count (dose: 400.0 mg/kg/injection, schedule: Q04DX003 (ip), vehicle: Klucel (hydroxypropylcellulose) (HPC)) did it give?
The survivor count was 3 of 6.

Which results are given for `Cc1ccc(/C(=N\N=C(N)N)C2CC2)cc1C`?
survivor count (dose: 120.0 mg/kg/injection, schedule: Q01DX Z (ip), vehicle: methylcellulose (MC)): 0 of 6; survivor count (dose: 120.0 mg/kg/injection, schedule: Q01DX Z (oral), vehicle: methylcellulose (MC)): 5 of 6; survivor count (dose: 240.0 mg/kg/injection, schedule: Q01DX Z (oral), vehicle: methylcellulose (MC)): 3 of 6

`O=P(Oc1ccccc1)(Oc1ccccc1)C(Nc1ccccc1)c1cccnc1` (stereo not given) was tested. Which survivor count [5] did it give?
The survivor count was 6 of 6.

For `O=[N+]([O-])c1cc(Br)c(Br)cc1Br`, which survivor count [6] is on record?
The survivor count was 4 of 6.

`COc1ccc2c(c1)C1C=[S+]c3ccccc3C1N2` (stereo not given) was tested. Which survivor count [1] did it give?
The survivor count was 2 of 6.

For `CN(C)c1ccc(N2C(=O)C=CC2=O)cc1`, which survivor count (dose: 25.0 mg/kg/injection, schedule: Q01DX001 (ip), vehicle: saline with Tween-80) is on record?
The survivor count was 2 of 6.

How did the survivor count (dose: 100.0 mg/kg/injection, schedule: Q01DX009 (ip), vehicle: saline with Tween-80) turn out when `CCOC(=O)c1ccc(NC(=S)NC(=O)c2ccc(Cl)cc2Cl)cc1` was run?
The survivor count was 6 of 6.

For `CC1B(O)Nc2nc(=S)[nH]c(N)c21` (stereo not given), which survivor count (dose: 400.0 mg/kg/injection, schedule: Q04DX003 (ip), vehicle: saline sonified) is on record?
The survivor count was 0 of 6.

With `CC(=O)C=O` as the compound, how does the survivor count (dose: 240.0 mg/kg/injection, schedule: Q03DX002 (ip), vehicle: saline) read?
The survivor count was 3 of 10.

What about the survivor count [2] of the same compound?
Its survivor count is 2 of 10.

And the survivor count (dose: 360.0 mg/kg/injection, schedule: Q03DX002 (ip), vehicle: saline)?
The survivor count was 0 of 10.

And the survivor count (dose: 450.0 mg/kg/injection, schedule: Q01DX001 (ip), vehicle: saline)?
Its survivor count is 0 of 10.

And the survivor count (dose: 540.0 mg/kg/injection, schedule: Q03DX002 (ip), vehicle: saline)?
The survivor count was 0 of 10.

What about the survivor count (dose: 675.0 mg/kg/injection, schedule: Q01DX001 (ip), vehicle: saline) of the same compound?
Its survivor count is 0 of 10.

And the survivor count (dose: 810.0 mg/kg/injection, schedule: Q03DX002 (ip), vehicle: saline)?
Its survivor count is 0 of 10.

What about the survivor count (dose: 1000.0 mg/kg/injection, schedule: Q01DX001 (ip), vehicle: saline) of the same compound?
Its survivor count is 0 of 10.

What about the survivor count (dose: 1500.0 mg/kg/injection, schedule: Q01DX001 (ip), vehicle: saline) of the same compound?
The survivor count was 0 of 10.

And the survivor count (dose: 2250.0 mg/kg/injection, schedule: Q01DX001 (ip), vehicle: saline)?
Its survivor count is 0 of 10.

Which results are given for `CSC1=[N+](C)CCS1`?
survivor count [2]: 0 of 6; survivor count (dose: 300.0 mg/kg/injection, schedule: Q04DX003 (ip), vehicle: saline with Tween-80): 0 of 6; survivor count (dose: 350.0 mg/kg/injection, schedule: Q01DX009 (ip), vehicle: saline): 0 of 6

Which survivor count [3] does the source give for `CCOP(=S)(NN=C1CCC(C(C)(C)C)CC1)OCC` (stereo not given) here?
Its survivor count is 1 of 4.

For `O=C(OC1(c2ccccc2)OC(=O)c2ccccc21)c1ccccc1C(=O)c1ccccc1` (stereo not given), which survivor count [5] is on record?
Its survivor count is 6 of 6.

`C/C(=N/OC(=O)N(C)C)c1cc(Cl)ccc1Cl` was tested. Which survivor count [3] did it give?
Its survivor count is 3 of 6.

How did the survivor count [6] turn out when `CC(C)OC(=O)Oc1c(Cl)c(Cl)c(Cl)c(Cl)c1Cl` was run?
Its survivor count is 2 of 3.

Source: PubChem BioAssay AID248 (DTP/NCI, 2004)
